Counter-ions that a name gives are not always drawn. The list shows a part of the results. This data set is noisy: repeats of one test often differ as much as different tests do.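 The human kidney-derived cells carry a stably integrated construct of eight TEAD-binding elements driving luciferase, read by luminescence in a drug-repurposing library screen. A compound counts as a hit when its signal is more than five robust Z scores above the plate mean.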
Test system: HEK293A TEAD-LUC reporter
Assay: TEAD-luciferase reporter activity (YAP activation), robust Z score vs plate; higher = stronger YAP/TEAD activation
Conditions: 24 h

Compound | TEAD-luciferase reporter activity (compound concentration: 200 nM) | TEAD-luciferase reporter activity (compound concentration: 2 uM) | TEAD-luciferase reporter activity (compound concentration: 10 uM)
C[C@H](NC(=O)c1ccc(C(=N)N)cc1)C(=O)N1CCC(OCC(=O)O)CC1 | inactive: 0.551 | inactive: -0.951 | inactive: -1.64
CCCCCCCCC(O)C(O)CCCCCCCC(=O)O (centres undefined) [Contracyn] | inactive: -0.487 | inactive: 1.11 | inactive: 2.27
CO/C=C(/C(=O)OC)c1ccc(Cl)cc1COc1ccc(OCCOC)cc1 | inactive: -0.312 | inactive: -1.05 | inactive: 1.1
COCCNC(=O)Cn1cnc([N+](=O)[O-])n1 | inactive: 0.685 | inactive: -0.459 | inactive: -0.314
Cc1c(N=C2NCCN2)ccc2c1NCCO2 | inactive: -0.93 | inactive: -1.67 | inactive: 2.51
Nc1cc(N2CCCCC2)nc(N)[n+]1[O-] | inactive: -1.41 | inactive: 0.00296 | inactive: -0.506
NC(N)=NC(=O)c1cnn(-c2cccc3ncccc23)c1C1CC1 [Zoniporide hydrochloride] | inactive: 0.21 | inactive: 0.104 | inactive: 2.42
CN1CCC(c2cn(C)c3ccc(OS(=O)(=O)c4c(F)cccc4F)cc23)CC1 | inactive: -1.19 | inactive: -1.09 | inactive: -0.645
CC(C)c1csc(COc2cccc(CN(CCCCNS(=O)(=O)c3ccc(Cl)cc3)S(=O)(=O)c3ccccc3C(=O)O)c2)n1 | inactive: 1.17 | inactive: -0.101 | inactive: -0.0747
Cc1nnc(C(CCN2CC3CCC2CC3)(c2ccccc2)c2ccccc2)o1 [nufenoxole] | inactive: -0.958 | inactive: -0.577 | inactive: -0.115
CC1=C[C@H](O)CC(C)(C)[C@H]1/C=C/C(C)=C/C=C/C(C)=C/C=C/C=C(C)/C=C/C=C(C)/C=C/C1=C(C)C[C@@H](O)CC1(C)C [Lutein] | inactive: -1.35 | inactive: -0.87 | inactive: 0.708
CCN(CC)CC[n+]1ccc2c(C)c3[nH]c4ccc(O)cc4c3c(C)c2c1 | inactive: -2.14 | inactive: 1.81 | inactive: 0.736
COc1ccc(C2=NN(Cc3cccc(NC(=O)OCCCN(C)C)c3)C(=O)SC2)cc1OC | inactive: -1.01 | inactive: -1.51 | inactive: -0.257
O=C(O)C1CCN(c2nc(NCc3ccc4c(c3)OCO4)c3cc(Cl)ccc3n2)CC1 | inactive: -0.107 | inactive: -1.78 | inactive: 0.0344
C=CCN(C(=O)OCc1ccc([N+](=O)[O-])cc1)C1CCN(C[C@H]2CN(C(=O)C3CCCC3)C[C@]2(O)c2ccccc2)CC1 | inactive: -1.11 | inactive: 0.0753 | inactive: 3.01
CCOc1cnccc1-c1nc2c(c(CC)nn2C2CCCC2)c(=O)[nH]1 | inactive: -0.883 | inactive: 0.946 | inactive: 0.000314
COc1cc2c(cc1OC)C(=O)C(CC1CCN(Cc3ccccc3)CC1)C2 (centres undefined) [Anavex Plus] |  | inactive: -0.88 | 

Full records from above:
Cc1c(N=C2NCCN2)ccc2c1NCCO2 as listed: TEAD-luciferase reporter activity (compound concentration: 200 nM): inactive: -0.93; TEAD-luciferase reporter activity (compound concentration: 2 uM): inactive: -1.67; TEAD-luciferase reporter activity (compound concentration: 10 uM): inactive: 2.51
COc1cc2c(cc1OC)C(=O)C(CC1CCN(Cc3ccccc3)CC1)C2 (centres undefined) [Anavex Plus] as listed: TEAD-luciferase reporter activity (compound concentration: 2 uM): inactive: -0.88

— the supplement of paper PMC10735217
